Measurements: article PMC8384837
Substitutions are numbered along the chain they refer to. This is one part of the list. For some assays here: At the low end of the ranking, values are background and their order means little.

Columns and labels:
Conditions in all cases: yeast three-hybrid, YBZ-1, SC-Leu-His + 0.5 mM 3-AT, 4 days
[1] = target: T1, PUM1 PUF domain R1-CGE S863C + R864G + Q867E (Homo sapiens) (UniProt Q14671)
T1 sequence: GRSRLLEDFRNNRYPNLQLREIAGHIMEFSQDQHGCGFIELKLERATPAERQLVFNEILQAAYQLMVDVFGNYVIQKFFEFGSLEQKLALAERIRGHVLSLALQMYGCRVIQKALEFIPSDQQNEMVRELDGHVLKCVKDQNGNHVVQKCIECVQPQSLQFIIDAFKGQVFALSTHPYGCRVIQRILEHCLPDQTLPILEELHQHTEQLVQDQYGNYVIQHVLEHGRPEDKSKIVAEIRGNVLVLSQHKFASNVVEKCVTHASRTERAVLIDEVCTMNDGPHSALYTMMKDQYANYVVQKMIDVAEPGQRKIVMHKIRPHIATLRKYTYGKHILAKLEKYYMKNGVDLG

[2] = target: T2, PUM1 PUF domain R1-CWR S863C + R864W + Q867R (Homo sapiens) (UniProt Q14671)
T2 sequence: T1 sequence with G37W, E40R

[3] = target: T3, PUM1 PUF domain R1-ERV S863E + Q867V (Homo sapiens) (UniProt Q14671)
T3 sequence: T1 sequence with C36E, G37R, E40V

[4] = target: T4, PUM1 PUF domain R1-GRS S863G + Q867S (Homo sapiens) (UniProt Q14671)
T4 sequence: T1 sequence with C36G, G37R, E40S

[5] = target: T5, PUM1 PUF domain R1-KLS S863K + R864L + Q867S (Homo sapiens) (UniProt Q14671)
T5 sequence: T1 sequence with C36K, G37L, E40S

[6] = target: T6, PUM1 PUF domain R1-KSS S863K + R864S + Q867S (Homo sapiens) (UniProt Q14671)
T6 sequence: T1 sequence with C36K, G37S, E40S

[7] = target: T7, PUM1 PUF domain R1-LWK S863L + R864W + Q867K (Homo sapiens) (UniProt Q14671)
T7 sequence: T1 sequence with C36L, G37W, E40K

[8] = target: T8, PUM1 PUF domain R1-RCL S863R + R864C + Q867L (Homo sapiens) (UniProt Q14671)
T8 sequence: T1 sequence with C36R, G37C, E40L

[9] = target: T9, PUM1 PUF domain R1-RSE S863R + R864S + Q867E (Homo sapiens) (UniProt Q14671)
T9 sequence: T1 sequence with C36R, G37S

[10] = target: T10, PUM1 PUF domain R1-SFK R864F + Q867K (Homo sapiens) (UniProt Q14671)
T10 sequence: T1 sequence with C36S, G37F, E40K

[11] = target: T11, PUM1 PUF domain R1-TFR S863T + R864F + Q867R (Homo sapiens) (UniProt Q14671)
T11 sequence: T1 sequence with C36T, G37F, E40R

[12] = target: T12, PUM1 PUF domain R1-TMR S863T + R864M + Q867R (Homo sapiens) (UniProt Q14671)
T12 sequence: T1 sequence with C36T, G37M, E40R

[13] = target: T13, PUM1 PUF domain R1-TVR S863T + R864V + Q867R (Homo sapiens) (UniProt Q14671)
T13 sequence: T1 sequence with C36T, G37V, E40R

[14] = target: T14, PUM1 PUF domain R1-VYR S863V + R864Y + Q867R (Homo sapiens) (UniProt Q14671)
T14 sequence: T1 sequence with C36V, G37Y, E40R

[15] = target: T15, PUM1 PUF domain R1-QFR R2-VFQ R6-SWD R7-NPG S863Q + R864F + Q867R + N899V + Y900F + N1043S + Y1044W + Q1047D + S1079N + N1080P + E1083G (Homo sapiens) (UniProt Q14671)
T15 sequence: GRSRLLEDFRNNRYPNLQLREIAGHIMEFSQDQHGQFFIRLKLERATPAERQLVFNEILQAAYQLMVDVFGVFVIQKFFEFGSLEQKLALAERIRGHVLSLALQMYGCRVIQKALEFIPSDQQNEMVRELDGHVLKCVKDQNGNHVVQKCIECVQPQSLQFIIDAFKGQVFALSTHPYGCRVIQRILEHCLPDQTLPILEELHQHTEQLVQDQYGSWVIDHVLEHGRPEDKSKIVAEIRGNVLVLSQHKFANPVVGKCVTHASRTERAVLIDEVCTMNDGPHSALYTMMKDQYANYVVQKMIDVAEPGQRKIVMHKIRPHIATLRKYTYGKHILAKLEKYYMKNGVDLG

[16] = target: T16, PUM1 PUF domain R1-QFR R2-VFQ R3-THE R4-TFR R6-SWD R7-NPG S863Q + R864F + Q867R + N899V + Y900F + C935T + R936H + Q939E + N971T + H972F + Q975R + N1043S + Y1044W + Q1047D + S1079N + N1080P + E1083G (Homo sapiens) (UniProt Q14671)
T16 sequence: T15 sequence with C108T, R109H, Q112E, N144T, H145F, Q148R

[17] = target: T17, PUM1 PUF domain R3-THE R4-TFR R5-PHQ R6-SWD C935T + R936H + Q939E + N971T + H972F + Q975R + C1007P + R1008H + N1043S + Y1044W + Q1047D (Homo sapiens) (UniProt Q14671)
T17 sequence: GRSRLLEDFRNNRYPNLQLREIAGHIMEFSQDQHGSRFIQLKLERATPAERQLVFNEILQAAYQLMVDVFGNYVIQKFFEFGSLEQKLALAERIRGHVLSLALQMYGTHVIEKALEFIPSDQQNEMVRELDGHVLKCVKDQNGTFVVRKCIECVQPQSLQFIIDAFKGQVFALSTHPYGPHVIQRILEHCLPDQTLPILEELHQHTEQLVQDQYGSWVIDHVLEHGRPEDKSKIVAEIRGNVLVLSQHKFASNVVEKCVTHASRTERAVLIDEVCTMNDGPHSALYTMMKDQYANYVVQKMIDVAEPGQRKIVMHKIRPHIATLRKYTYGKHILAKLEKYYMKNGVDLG

[18] = target: T18, PUM1 PUF domain R3-THE R4-TFR R6-SWD C935T + R936H + Q939E + N971T + H972F + Q975R + N1043S + Y1044W + Q1047D (Homo sapiens) (UniProt Q14671)
T18 sequence: T17 sequence with P180C, H181R

[19] = target: T19, PUM1 PUF domain R1-KMR S863K + R864M + Q867R (UniProt Q14671)
T19 sequence: T1 sequence with C36K, G37M, E40R

[20] = target: T20, PUM1 PUF domain R1-TGR S863T + R864G + Q867R (UniProt Q14671)
T20 sequence: T1 sequence with C36T, E40R

What does the source list for “GGCUAGAACUAGUGGAUCCCCCGGCGCCCGGCGGCUCGAGCCCGGGUAAGUGUAAAUUGUCUGCAUGCCGCCGGGCGCCAUGCCUGCAGGUCGACUCUAGAAAACAUG”?
binding signal (log2 enrichment (interaction score)) [1]: -1.38; binding signal (log2 enrichment (interaction score)) [2]: 0.67; binding signal (log2 enrichment (interaction score)) [3]: -0.27; binding signal (log2 enrichment (interaction score)) [4]: 0.5; binding signal (log2 enrichment (interaction score)) [5]: -0.46; binding signal (log2 enrichment (interaction score)) [6]: -0.1; binding signal (log2 enrichment (interaction score)) [7]: -1.2; binding signal (log2 enrichment (interaction score)) [8]: -0.03; binding signal (log2 enrichment (interaction score)) [9]: -0.17; binding signal (log2 enrichment (interaction score)) [10]: 0.71; binding signal (log2 enrichment (interaction score)) [11]: -0.84; binding signal (log2 enrichment (interaction score)) [12]: -0.47; binding signal (log2 enrichment (interaction score)) [13]: 0.13; binding signal (log2 enrichment (interaction score)) [14]: 0.09

Which binding signal (log2 enrichment (interaction score)) [15] does the source give for “GGCUAGAACUAGUGGAUCCCCCGGCGCCCGGCGGCUCGAGCCCGGGUAAGUUGAAAACGUCUGCAUGCCGCCGGGCGCCAUGCCUGCAGGUCGACUCUAGAAAACAUG” here?
The binding signal (log2 enrichment (interaction score)) was -2.24.

With “GGCUAGAACUAGUGGAUCCCCCGGCGCCCGGCGGCUCGAGCCCGGGUAAGUUGACGACGUCUGCAUGCCGCCGGGCGCCAUGCCUGCAGGUCGACUCUAGAAAACAUG” as the sequence, how does the binding signal (log2 enrichment (interaction score)) [16] read?
The binding signal (log2 enrichment (interaction score)) was 4.6.

“GGCUAGAACUAGUGGAUCCCCCGGCGCCCGGCGGCUCGAGCCCGGGUAAGUGGACGUAGUCUGCAUGCCGCCGGGCGCCAUGCCUGCAGGUCGACUCUAGAAAACAUG” was tested. Which binding signal (log2 enrichment (interaction score)) [17] did it give?
The binding signal (log2 enrichment (interaction score)) was -0.44.

And the binding signal (log2 enrichment (interaction score)) [18]?
The binding signal (log2 enrichment (interaction score)) was 0.13.

Which binding signal (log2 enrichment (interaction score)) [19] does the source give for “GGCUAGAACUAGUGGAUCCCCCGGCGCCCGGCGGCUCGAGCCCGGGUAAGUGUAAAUGGUCUGCAUGCCGCCGGGCGCCAUGCCUGCAGGUCGACUCUAGAAAACAUG” here?
Its binding signal (log2 enrichment (interaction score)) is -2.3.

And the binding signal (log2 enrichment (interaction score)) [20]?
Its binding signal (log2 enrichment (interaction score)) is -2.2.
